# Experimental data: PubChem BioAssay AID1259405 (NCATS, 2018)
# Aim: 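Knock-downs that lift recombinant protein yield in hamster ovary cells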 (primary screen)
# Cell system: Chinese hamster CHO-K1 ovary cells with stable secreted eGFP expression
# Reagent: single siRNA against mouse genes, 0.8 pmol siRNA per well (2 µl of 400 nM stock)
# Time to read-out: 3 days
# Measurement: 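Percent of the per-plate non-targeting control median for intracellular GFP per well by laser scanning cytometry and for cell viability by ATP luminescence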
# Scale: GFP, % of control: higher = more GFP per well, higher productivity; viability (ATP), % of control: higher = more viable cells (more ATP)
# Rule for the call: 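Called active when intracellular GFP, relative to negative control, is at or above 120%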
# The whole screen tested about 50,000 reagents; shown is an unselected part. Of all reagents, about 4,000 (8%) were called active. 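Mouse siRNA library applied to hamster cells; one well for each siRNA.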 The numbers tell different reagents against one gene apart.
gene symbol,reagent,"GFP, % of control","viability (ATP), % of control",call
Gnl3,1,86.5,72.7,inactive
Gnl3,2,59,75.1,inactive
Eddm3b,1,64.4,79.9,inactive
Eddm3b,2,167,95.3,active
Eddm3b,3,177,220,active
Eda2r,1,82.1,114,inactive
Eda2r,2,73.6,66.9,inactive
Loxhd1,1,59.6,71.1,inactive
Loxhd1,2,70.2,91.4,inactive
Loxhd1,3,73.4,87.5,inactive
Ik,1,112,45.3,inactive
Ik,2,72.7,28.9,inactive
Ik,3,80.5,56.6,inactive
Qsox1,1,108,86.6,inactive
Qsox1,2,53.6,73.2,inactive
Qsox1,3,66.1,58.8,inactive
Cep135,1,69.9,57.3,inactive
Cep135,2,65,75.2,inactive
Cep135,3,116,102,inactive

6 entries from above in another layout.
{"gene symbol": "Loxhd1", "reagent": 1, "GFP, % of control": 59.6, "viability (ATP), % of control": 71.1, "call": "inactive"}
{"gene symbol": "Loxhd1", "reagent": 2, "GFP, % of control": 70.2, "viability (ATP), % of control": 91.4, "call": "inactive"}
{"gene symbol": "Loxhd1", "reagent": 3, "GFP, % of control": 73.4, "viability (ATP), % of control": 87.5, "call": "inactive"}
{"gene symbol": "Ik", "reagent": 1, "GFP, % of control": 112, "viability (ATP), % of control": 45.3, "call": "inactive"}
{"gene symbol": "Ik", "reagent": 2, "GFP, % of control": 72.7, "viability (ATP), % of control": 28.9, "call": "inactive"}
{"gene symbol": "Ik", "reagent": 3, "GFP, % of control": 80.5, "viability (ATP), % of control": 56.6, "call": "inactive"}

Further reagents follow.
gene symbol,reagent,"GFP, % of control","viability (ATP), % of control",call
Ddx39a,1,78.8,58.5,inactive
Ddx39a,2,91,67.6,inactive
Ddx39a,3,137,116,active
Adm2,1,66.5,46.1,inactive
Adm2,2,90.9,83.2,inactive
Adm2,3,40.5,59.1,inactive
Pou5f1,1,80.7,73.4,inactive
Pou5f1,2,51,58.5,inactive
Pou5f1,3,102,85.9,inactive
Gars1,1,65.4,81.8,inactive
Gars1,2,171,133,active
Gars1,3,94.5,96.5,inactive
Gars1,4,96.4,84,inactive
Gars1,5,65.4,81.8,inactive
Cenpm,1,88.9,74.8,inactive
Cenpm,2,84.5,78,inactive
Cenpm,3,107,96.1,inactive
